No constants are given. Whether binding was seen depends on the method and setting. In cells and extracts the contact can be indirect. Binding can be weak; no strength is given. Where a sequence is shown, tags or fusion partners need not be part of it.

Test [1] concerns the target HaGland5-GFP (Heterodera avenae). As to the kind of experiment: co-IP; HaGland5-GFP (or GFP, Ha15186-GFP) co-expressed with AtEMB3003-HA in N. benthamiana by agroinfiltration, 48 h; whole protein extract; Western blot.
For test [2], the target named is HaGland5-NLuc (Heterodera avenae). As to the kind of experiment: split reporter; firefly luciferase complementation imaging (LCI) in N. benthamiana leaves, 60 h after agroinfiltration, CCD imaging of LUC activity.

B1: AtEMB3003-HA (protein, UniProt Q9C8P0 32-465)
chain: IIPIQAKIREIFMPALSSTMTEGKIVSWVKSEGDKLNKGESVVVVESDKADMDVETFYDGYLAAIMVEEGGVAPVGSAIALLAETEDEIADAKAKASGGGGGGDSKAPPASPPTAAVEAPVSVEKKVAAAPVSIKAVAASAVHPASEGGKRIVASPYAKKLAKELKVELAGLVGSGPMGRIVAKDVEAVAAGGGVQAAVAVKEVVAAPGVELGSVVPFTTMQGAVSRNMVESLGVPTFRVGYTISTDALDALYKKIKSKGVTMTALLAKATALALAKHPVVNSSCRDGNSFVYNSSINVAVAVAIDGGLITPVLQNADKVDIYSLSRKWKELVDKARAKQLQPQEYNTGTFTLSNLGMFGVDRFDAILPPGTGAIMAVGASQPSVVATKDGRIGMKNQMQVNVTADHRVIYGADLAQFLQTLASIIEDPKDLTF
For B1, the binding entry in test [1] is on record as “binds”.

B2: Cluc-AtEMB3003 (protein, UniProt Q9C8P0 32-465)
chain: B1 chain
Regarding B2, the binding entry in test [2] is “binds”.

The values are drawn from paper PMC6558007.
